Laboratory results published in patent US20150017120A1 (MIT, published 2015).
These are yes or no findings as the source states them, for the method shown. Some results given as binding are weak or reduced against the parent protein; the word gives no strength.

T1: soluble murine CD25 (murine, UniProt P01590 22-236, limits assumed)
T1 construct: also called soluble CD25; mouse CD25
T1 sequence (looked up): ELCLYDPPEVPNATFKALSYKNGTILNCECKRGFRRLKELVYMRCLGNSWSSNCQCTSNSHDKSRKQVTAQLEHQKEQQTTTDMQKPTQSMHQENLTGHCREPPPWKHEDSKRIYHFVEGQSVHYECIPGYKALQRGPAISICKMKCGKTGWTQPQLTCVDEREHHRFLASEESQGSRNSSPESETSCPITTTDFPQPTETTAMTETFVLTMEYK

B1: H82E mouse IL-2 (ligand)
chain: APTSSSTSSSTAEAQQQQQQQQQQQQHLEQLLMDLQELLSRMENYRNLKLPRMLTFKFYLPKQATELKDLQCLEDELGPLREVLDLTQSKSFQLEDAENFISNIRVTVVKLKGSDNTFECQFDDESATVVDFLRRWIAFCQSIISTSPQ
B2: Q121S mouse IL-2 (ligand)
chain: APTSSSTSSSTAEAQQQQQQQQQQQQHLEQLLMDLQELLSRMENYRNLKLPRMLTFKFYLPKQATELKDLQCLEDELGPLRHVLDLTQSKSFQLEDAENFISNIRVTVVKLKGSDNTFECSFDDESATVVDFLRRWIAFCQSIISTSPQ
B3: Q121G mouse IL-2 (ligand)
chain: APTSSSTSSSTAEAQQQQQQQQQQQQHLEQLLMDLQELLSRMENYRNLKLPRMLTFKFYLPKQATELKDLQCLEDELGPLRHVLDLTQSKSFQLEDAENFISNIRVTVVKLKGSDNTFECGFDDESATVVDFLRRWIAFCQSIISTSPQ
B4: H82A mouse IL-2 (ligand)
chain: APTSSSTSSSTAEAQQQQQQQQQQQQHLEQLLMDLQELLSRMENYRNLKLPRMLTFKFYLPKQATELKDLQCLEDELGPLRAVLDLTQSKSFQLEDAENFISNIRVTVVKLKGSDNTFECQFDDESATVVDFLRRWIAFCQSIISTSPQ
B5: H82G mouse IL-2 (ligand)
chain: APTSSSTSSSTAEAQQQQQQQQQQQQHLEQLLMDLQELLSRMENYRNLKLPRMLTFKFYLPKQATELKDLQCLEDELGPLRGVLDLTQSKSFQLEDAENFISNIRVTVVKLKGSDNTFECQFDDESATVVDFLRRWIAFCQSIISTSPQ
B6: Q121R mouse IL-2 (ligand)
chain: APTSSSTSSSTAEAQQQQQQQQQQQQHLEQLLMDLQELLSRMENYRNLKLPRMLTFKFYLPKQATELKDLQCLEDELGPLRHVLDLTQSKSFQLEDAENFISNIRVTVVKLKGSDNTFECRFDDESATVVDFLRRWIAFCQSIISTSPQ
B7: H82S mouse IL-2 (ligand)
chain: APTSSSTSSSTAEAQQQQQQQQQQQQHLEQLLMDLQELLSRMENYRNLKLPRMLTFKFYLPKQATELKDLQCLEDELGPLRSVLDLTQSKSFQLEDAENFISNIRVTVVKLKGSDNTFECQFDDESATVVDFLRRWIAFCQSIISTSPQ
B8: Q121A mouse IL-2 (ligand)
chain: APTSSSTSSSTAEAQQQQQQQQQQQQHLEQLLMDLQELLSRMENYRNLKLPRMLTFKFYLPKQATELKDLQCLEDELGPLRHVLDLTQSKSFQLEDAENFISNIRVTVVKLKGSDNTFECAFDDESATVVDFLRRWIAFCQSIISTSPQ
B9: S126P IL-2 (ligand)
chain: APTSSSTSSSTAEAQQQQQQQQQQQQHLEQLLMDLQELLSRMENYRNLKLPRMLTFKFYLPKQATELKDLQCLEDELGPLRHVLDLTQSKSFQLEDAENFISNIRVTVVKLKGSDNTFECQFDDEPATVVDFLRRWIAFCQSIISTSPQ
B10: S126T IL-2 (ligand)
chain: APTSSSTSSSTAEAQQQQQQQQQQQQHLEQLLMDLQELLSRMENYRNLKLPRMLTFKFYLPKQATELKDLQCLEDELGPLRHVLDLTQSKSFQLEDAENFISNIRVTVVKLKGSDNTFECQFDDETATVVDFLRRWIAFCQSIISTSPQ

Target: T1, soluble murine CD25
Experiment: yeast surface display, labeling with 5 or 50 nM soluble CD25

binding, binds:
B1
B2
B3
B4
B5
B6
B7
B8

Target: T1, soluble murine CD25
Experiment: yeast surface display, labeling with soluble CD25, FACS

binding, binds:
B9
B10
